Experimental findings from paper PMC6964919 are described below.

B1: Ddx47 (protein, UniProt Q9CWX9 1-455)
chain: MAADEEPDSPSGALQTAAEEEETKTFKDLGVTDVLCEACDQLGWAKPTKIQIEAIPLALQGRDIIGLAETGSGKTGAFALPILNALLETPQRLFALVLTPTRELAFQISEQFEALGSSIGVQCAVIVGGIDSMSQSLALAKKPHIVIATPGRLIDHLENTKGFNLRALKYLVMDEADRILNMDFETEVDKILKVIPRDRKTFLFSATMTKKVQKLQRAALKNPVKCAVSSKYQTVEKLQQYYLFIPSKFKDTYLVYILNELAGNSFMIFCSTCNNTQRTALLLRNLGFTAIPLHGQMSQSKRLGSLNKFKAKARSILLATDVASRGLDIPHVDVVVNFDIPTHSKDYIHRVGRTARAGRSGKAITFVTQYDVELFQRIEHLIGKKLPVFPTQDEEVMMLTERVNEAQRFARMELREHGEKKKRKREDAGDDDDKEGAIGVRNKVAGGKMKKRKGR
B2: BRX1 (protein, UniProt Q9DCA5 1-353)
chain: MAATKRKRRGGLEVQAKKPKRSSKDAGQPAKQADVAKEAEEENRDRIPGPVCKGKWKNKERILIFSSRGINFRTRHLMQDLRMLMPHSKADTKMDRKDKLFVINEVCEMKNCNKCIYFEAKKKQDLYMWLSNSPHGPSAKFLVQNIHTLAELKMTGNCLKGSRPLLSFDPAFDDLPHYALLKEFLIQIFSTPRYHPKSQPFVDHVFTFTILDNRIWFRNFQIIEEDAALVEIGPRFVLNLIKIFQGSFGGPTLYENPHYQSPNMHRRVIRSITAAKYRERQQVKDVQKLRKKEPKTILPHDPTADVFVIPAEEKPVEIQWVKPEPKVDLKARKRRIYKRHRKLQQKMSRGSAK
B3: Rrs1 (protein, UniProt Q9CYH6 1-365)
chain: MEGQRVEELLAKAEQEEAEKLQRITVHKELELEFDLGNLLASDRNPPTVLRQAGPSPEAELRALARDNTQLLINQLWRLPTERVEEAVVARLPEPATRLPREKPLPRPRPLTRWQQFARLKGIRPKKKTNLVWDEASGQWRRRWGYKRARDDTKEWLIEVPGSADPMEDQFAKRTQAKKERVAKNELNRLRNLARAHKMQMPSSAGLHPTGHQSKEELGRAMQVAKVSTASVGRFQERLPKEKAPRGSGKKRKFQPLFGDFAAEKKNQLELLRVMNSKKPRLDVTRATNKQMREEDQEEAAKRRKMSQKGKRKGGRQGPSGKRKGGPPGQGEKRKGGLGSKKHSWPSALAGKKKGVPPQGGKRRK
B4: NUFP2 (protein, UniProt Q5F2E7 1-692)
chain: MEEKPGQPQPQHHHSHHHPHHHPQQQQQQQSHHHHHYYFYNHSHNHHHHHHHQQPHQYLQHGAEGSPKAQPKPLKHEQKHTLQQHQETPKKKTGYGEINGNAGEREISLKSLSSDEATNPISRVLNGNQQVVETSLKQTVKTSTFGKAGIKTKNFIQKNSMDKKNGKSYENKSGETQAVDKTDTIAIPNGVITSSSGYITNGYMSKGADNDGSGSESGYTTPKKRKARRNSAKGCENLNLVQDKIMQETSVPALKQGLETLKPDYSEQKGMRVDGSKPIWKYETGPGGTSRGKPAMGDVLRKSSDIKPGLSSKKFDDRPKGKHASAAASKEDSWTLFKPPPVFPVDNSSAKIVPKISYASKVKENLNKTVQNSSVSPSSSSSSSSTGETQTQSSSRLSQVPMSALKSVTSASFSNGPVLAGTDGSVYPSGGQPLLTTAANTLTPISTGTDSVLQDMSLASAAVEQIKSSLFIYPSNMQTVLLSAQVDLPSQTDQQNLGDIFQNQWGLSFINEPSAGPETVIGKSSDHKVMEVTFQGEYPATLVSQGAEIIPSGTEHPVFPKAYELEKRTSPQVLGHILKPGTTESGALSLDPSHIGDLQKADTSSQGALVFLSKDYEIENQNPLASPTNTLLGSAKEQRYQRGLERNDSWGSFDLRAAIVYHTKEMESIWNLQKQDPKRIITYNEAMDSPDQ

These are yes or no findings as the source states them, for the method shown. Binding seen in cells or lysates may run through a third protein. These calls come from enrichment with a bait or labelling near it, and not all partners need be listed.

In the experiment the target is GFP-tagged G3BP1 (Ras-GTPase activating SH3 domain binding protein 1). In words: affinity purification with mass spectrometry.
For B1, the binding result is “binds”. For B2, the binding entry is “binds”. In the case of B3, the binding entry is “binds”. B4: the binding entry is given as “binds”.
